Laboratory results taken from PMC8748630.
No constants are given. Whether binding was seen depends on the method and setting.

Protein sequences, listed by entry. Tags and fused reporters are not part of them.
UniProt Q96SW2: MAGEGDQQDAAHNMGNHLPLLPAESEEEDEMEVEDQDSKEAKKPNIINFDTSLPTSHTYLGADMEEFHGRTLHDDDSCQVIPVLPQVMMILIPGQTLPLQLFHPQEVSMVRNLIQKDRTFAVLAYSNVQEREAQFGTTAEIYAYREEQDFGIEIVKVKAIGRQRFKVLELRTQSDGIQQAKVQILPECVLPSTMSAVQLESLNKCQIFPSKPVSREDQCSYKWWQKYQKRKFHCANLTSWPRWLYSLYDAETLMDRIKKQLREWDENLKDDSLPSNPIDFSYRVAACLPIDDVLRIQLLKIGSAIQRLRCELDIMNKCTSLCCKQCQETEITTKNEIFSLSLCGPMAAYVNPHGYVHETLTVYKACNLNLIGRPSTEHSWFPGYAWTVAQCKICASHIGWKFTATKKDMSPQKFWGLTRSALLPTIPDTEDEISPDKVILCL
UniProt P11362: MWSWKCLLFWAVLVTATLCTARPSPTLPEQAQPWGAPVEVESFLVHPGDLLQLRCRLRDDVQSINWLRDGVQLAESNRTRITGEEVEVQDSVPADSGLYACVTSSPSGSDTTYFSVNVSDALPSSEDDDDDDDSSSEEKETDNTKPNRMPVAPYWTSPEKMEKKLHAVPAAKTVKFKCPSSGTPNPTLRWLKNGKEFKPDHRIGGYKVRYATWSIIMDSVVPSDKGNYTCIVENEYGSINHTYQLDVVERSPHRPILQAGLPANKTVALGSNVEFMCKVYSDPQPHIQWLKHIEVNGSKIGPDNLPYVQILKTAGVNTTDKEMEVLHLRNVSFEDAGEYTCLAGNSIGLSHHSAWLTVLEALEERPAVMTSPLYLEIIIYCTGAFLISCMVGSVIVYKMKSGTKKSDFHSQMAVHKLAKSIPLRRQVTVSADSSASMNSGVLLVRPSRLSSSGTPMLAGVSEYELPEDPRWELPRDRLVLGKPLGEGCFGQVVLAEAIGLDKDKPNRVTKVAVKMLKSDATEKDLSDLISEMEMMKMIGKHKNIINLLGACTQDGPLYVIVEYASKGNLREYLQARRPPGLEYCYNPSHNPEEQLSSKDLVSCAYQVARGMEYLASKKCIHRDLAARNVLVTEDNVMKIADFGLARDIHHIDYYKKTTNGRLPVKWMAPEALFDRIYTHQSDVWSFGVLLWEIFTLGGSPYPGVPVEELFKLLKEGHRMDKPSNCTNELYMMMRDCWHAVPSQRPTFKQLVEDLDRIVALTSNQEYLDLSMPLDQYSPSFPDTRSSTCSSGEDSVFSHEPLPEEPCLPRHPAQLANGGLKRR
UniProt Q5VZL5: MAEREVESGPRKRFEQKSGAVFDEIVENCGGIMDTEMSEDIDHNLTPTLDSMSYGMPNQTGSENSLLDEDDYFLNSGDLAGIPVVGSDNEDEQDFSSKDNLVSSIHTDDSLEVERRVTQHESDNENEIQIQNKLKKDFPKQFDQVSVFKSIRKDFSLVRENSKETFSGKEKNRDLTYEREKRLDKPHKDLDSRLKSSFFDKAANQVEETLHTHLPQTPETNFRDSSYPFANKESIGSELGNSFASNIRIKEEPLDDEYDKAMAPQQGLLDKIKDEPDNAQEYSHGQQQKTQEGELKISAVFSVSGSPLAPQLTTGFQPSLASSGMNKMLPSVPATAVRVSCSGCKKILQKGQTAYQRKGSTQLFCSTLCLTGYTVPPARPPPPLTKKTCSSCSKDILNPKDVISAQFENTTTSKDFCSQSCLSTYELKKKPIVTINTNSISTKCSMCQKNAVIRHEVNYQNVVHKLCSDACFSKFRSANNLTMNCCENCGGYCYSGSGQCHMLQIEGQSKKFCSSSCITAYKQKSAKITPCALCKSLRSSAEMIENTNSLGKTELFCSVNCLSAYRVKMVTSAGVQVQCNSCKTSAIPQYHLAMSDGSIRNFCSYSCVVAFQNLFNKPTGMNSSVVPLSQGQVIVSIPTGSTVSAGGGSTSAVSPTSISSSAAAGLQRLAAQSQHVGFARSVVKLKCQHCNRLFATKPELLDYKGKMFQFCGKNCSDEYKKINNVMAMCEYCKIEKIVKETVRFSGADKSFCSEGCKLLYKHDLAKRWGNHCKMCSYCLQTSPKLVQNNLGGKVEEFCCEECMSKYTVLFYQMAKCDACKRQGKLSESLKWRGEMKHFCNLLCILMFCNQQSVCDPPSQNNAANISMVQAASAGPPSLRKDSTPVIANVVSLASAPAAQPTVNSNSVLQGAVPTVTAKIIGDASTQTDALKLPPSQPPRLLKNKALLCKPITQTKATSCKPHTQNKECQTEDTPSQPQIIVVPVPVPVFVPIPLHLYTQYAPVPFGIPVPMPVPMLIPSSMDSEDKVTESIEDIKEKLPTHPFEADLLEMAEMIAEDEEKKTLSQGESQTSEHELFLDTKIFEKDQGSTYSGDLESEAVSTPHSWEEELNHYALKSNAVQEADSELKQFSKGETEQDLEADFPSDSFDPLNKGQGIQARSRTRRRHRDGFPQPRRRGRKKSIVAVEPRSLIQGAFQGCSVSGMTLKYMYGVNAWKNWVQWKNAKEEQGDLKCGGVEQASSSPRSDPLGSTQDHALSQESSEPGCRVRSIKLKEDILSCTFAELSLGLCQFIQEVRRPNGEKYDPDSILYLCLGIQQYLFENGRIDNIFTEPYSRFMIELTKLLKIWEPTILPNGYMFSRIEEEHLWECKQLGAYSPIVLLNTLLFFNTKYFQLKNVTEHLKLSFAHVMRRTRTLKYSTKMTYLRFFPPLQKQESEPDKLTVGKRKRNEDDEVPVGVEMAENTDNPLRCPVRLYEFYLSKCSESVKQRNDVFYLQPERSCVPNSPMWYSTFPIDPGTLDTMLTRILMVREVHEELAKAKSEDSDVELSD
UniProt Q9UEG4: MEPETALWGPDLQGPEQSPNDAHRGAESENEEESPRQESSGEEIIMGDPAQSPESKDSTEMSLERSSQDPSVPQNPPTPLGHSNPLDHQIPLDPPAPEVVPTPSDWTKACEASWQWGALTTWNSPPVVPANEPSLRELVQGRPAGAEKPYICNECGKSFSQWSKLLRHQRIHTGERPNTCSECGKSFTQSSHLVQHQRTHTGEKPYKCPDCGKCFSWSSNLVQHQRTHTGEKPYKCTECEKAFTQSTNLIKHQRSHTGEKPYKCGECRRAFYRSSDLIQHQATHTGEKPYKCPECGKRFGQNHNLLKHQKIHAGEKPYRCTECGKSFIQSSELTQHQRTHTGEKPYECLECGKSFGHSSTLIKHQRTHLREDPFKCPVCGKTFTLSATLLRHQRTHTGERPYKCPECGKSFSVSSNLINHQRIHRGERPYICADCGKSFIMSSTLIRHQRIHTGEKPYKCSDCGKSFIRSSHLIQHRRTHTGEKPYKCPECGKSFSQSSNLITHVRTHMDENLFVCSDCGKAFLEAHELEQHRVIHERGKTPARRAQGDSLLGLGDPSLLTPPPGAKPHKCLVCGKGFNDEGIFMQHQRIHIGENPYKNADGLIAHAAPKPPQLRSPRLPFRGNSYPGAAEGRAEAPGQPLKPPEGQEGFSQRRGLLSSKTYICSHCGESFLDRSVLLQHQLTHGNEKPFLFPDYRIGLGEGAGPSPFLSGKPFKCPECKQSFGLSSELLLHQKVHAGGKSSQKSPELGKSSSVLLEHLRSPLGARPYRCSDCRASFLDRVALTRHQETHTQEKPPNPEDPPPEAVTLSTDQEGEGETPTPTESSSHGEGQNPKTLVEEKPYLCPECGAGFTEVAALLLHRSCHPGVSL

Target: biotin-labelled bls-CRBN (UniProt Q96SW2)
Experiment: AlphaScreen or HTRF; AlphaScreen: biotinylated bls-CRBN mixture, FLAG-GST-substrate mixture and DMSO or 20 µM IMiDs; 100 mM Tris pH 8.0, 0.01% Tween20, 100 mM NaCl, 1 mg/mL BSA, 26 °C 1 h; anti-DYKDDDDK mAb, streptavidin donor and Protein A acceptor beads; wheat cell-free proteins

## FLAG-GST-FGFR1 (from UniProt P11362 1-822)
  binding: no binding (tested: tested with DMSO or 20 µM pomalidomide)

## FLAG-GST-ZMYM4 (from UniProt Q5VZL5 1-1548)
  binding: no binding (tested: tested with DMSO or 20 µM IMiDs)

## FLAG-GST-ZNF629 (from UniProt Q9UEG4 1-869)
  binding: no binding (tested: tested with DMSO or 20 µM IMiDs)
